Results are given in words; binding and its absence hold for the method and conditions named. In cells and extracts the contact can be indirect. Binding calls can cover weak binding; strength is not graded here. Where a sequence is shown, tags or fusion partners need not be part of it.
Target: T1, ZEB1-flag (UniProt Q64318)
T1 sequence: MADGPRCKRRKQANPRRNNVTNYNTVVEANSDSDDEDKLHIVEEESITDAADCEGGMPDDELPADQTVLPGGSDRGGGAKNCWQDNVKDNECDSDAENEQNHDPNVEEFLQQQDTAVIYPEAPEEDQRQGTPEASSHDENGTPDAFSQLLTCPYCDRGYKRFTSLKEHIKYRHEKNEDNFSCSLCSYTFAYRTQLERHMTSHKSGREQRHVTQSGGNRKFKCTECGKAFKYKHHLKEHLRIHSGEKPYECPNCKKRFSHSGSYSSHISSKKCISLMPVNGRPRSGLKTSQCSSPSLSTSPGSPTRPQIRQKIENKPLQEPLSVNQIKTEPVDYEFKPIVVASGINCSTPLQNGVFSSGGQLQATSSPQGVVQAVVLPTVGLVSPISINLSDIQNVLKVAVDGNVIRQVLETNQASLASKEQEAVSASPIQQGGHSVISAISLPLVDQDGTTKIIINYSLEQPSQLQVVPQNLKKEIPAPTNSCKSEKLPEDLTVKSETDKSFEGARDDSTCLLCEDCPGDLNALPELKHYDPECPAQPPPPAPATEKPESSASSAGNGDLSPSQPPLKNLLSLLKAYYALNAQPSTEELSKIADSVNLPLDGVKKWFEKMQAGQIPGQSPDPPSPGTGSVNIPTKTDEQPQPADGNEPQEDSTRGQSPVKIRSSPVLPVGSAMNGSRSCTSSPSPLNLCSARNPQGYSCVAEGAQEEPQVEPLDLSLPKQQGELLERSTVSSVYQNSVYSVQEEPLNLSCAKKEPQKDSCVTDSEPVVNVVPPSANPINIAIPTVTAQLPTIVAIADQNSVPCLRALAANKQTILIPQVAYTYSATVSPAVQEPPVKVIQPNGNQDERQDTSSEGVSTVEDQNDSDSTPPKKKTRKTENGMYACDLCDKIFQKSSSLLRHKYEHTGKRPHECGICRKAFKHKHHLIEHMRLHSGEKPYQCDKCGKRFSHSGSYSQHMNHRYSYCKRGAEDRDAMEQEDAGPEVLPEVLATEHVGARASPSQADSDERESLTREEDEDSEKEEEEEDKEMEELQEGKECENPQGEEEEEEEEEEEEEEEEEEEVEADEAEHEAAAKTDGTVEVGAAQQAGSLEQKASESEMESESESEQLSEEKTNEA
Assay: co-IP; HEK293 cells co-transfected with 5 ug of each expression vector; lysate incubated with Flag antibody bound beads 2h at 4°C; eluted with 3xFlag peptide; Myc-tagged SOX2 forms analysed; no DNase I

binding: binds
Substance: Myc-tagged SOX2 C-terminus (domain or fragment)
